# In PMC6335420, “The cell cycle regulator GpsB functions as cytosolic adaptor for multiple cell wall enzymes” (Nature Communications, 2019):
# By UniProt entry, the sequences of proteins in these tests, tags left out. Where a name states a change or a piece, a line headed by the entry shows the natural chain unless it says otherwise.
# UniProt B8DBQ3: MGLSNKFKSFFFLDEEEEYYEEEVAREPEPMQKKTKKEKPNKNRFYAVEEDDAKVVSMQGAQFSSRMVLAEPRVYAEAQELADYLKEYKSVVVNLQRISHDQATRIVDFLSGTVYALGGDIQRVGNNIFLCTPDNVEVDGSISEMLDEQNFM
# UniProt Q8Y614: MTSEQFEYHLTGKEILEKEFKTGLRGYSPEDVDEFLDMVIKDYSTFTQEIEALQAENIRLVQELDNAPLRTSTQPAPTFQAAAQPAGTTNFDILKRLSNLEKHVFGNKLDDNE
# UniProt A0A0H2ZMF9: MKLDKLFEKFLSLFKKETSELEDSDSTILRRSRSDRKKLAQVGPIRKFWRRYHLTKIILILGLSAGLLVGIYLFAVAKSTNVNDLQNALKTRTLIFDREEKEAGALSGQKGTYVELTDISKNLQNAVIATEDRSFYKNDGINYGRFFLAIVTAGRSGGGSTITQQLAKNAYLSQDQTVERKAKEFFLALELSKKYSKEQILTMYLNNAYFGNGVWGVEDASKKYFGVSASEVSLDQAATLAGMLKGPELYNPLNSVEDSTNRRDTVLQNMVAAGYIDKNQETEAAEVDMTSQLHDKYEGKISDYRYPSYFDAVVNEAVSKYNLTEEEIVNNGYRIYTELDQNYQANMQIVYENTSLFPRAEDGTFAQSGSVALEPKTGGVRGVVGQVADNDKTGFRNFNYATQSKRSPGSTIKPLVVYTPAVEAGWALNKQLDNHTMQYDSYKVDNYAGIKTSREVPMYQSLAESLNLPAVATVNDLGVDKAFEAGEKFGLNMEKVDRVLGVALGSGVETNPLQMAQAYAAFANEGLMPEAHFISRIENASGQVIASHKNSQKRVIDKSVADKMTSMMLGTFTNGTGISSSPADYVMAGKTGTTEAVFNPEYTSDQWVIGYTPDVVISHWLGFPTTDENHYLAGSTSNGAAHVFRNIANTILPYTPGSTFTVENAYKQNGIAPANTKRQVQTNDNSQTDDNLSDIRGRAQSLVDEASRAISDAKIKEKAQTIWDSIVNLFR
# T1: SpMreC-L-F3 (S. pneumoniae D39) (UniProt Q8DMY2)
# T1 sequence: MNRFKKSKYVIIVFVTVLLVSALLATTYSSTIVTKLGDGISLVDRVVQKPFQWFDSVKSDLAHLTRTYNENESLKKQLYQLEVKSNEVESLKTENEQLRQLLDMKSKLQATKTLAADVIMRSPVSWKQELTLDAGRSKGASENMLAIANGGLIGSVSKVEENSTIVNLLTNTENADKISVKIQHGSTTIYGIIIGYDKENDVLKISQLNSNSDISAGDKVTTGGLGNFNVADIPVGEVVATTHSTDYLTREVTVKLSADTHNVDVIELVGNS
# T2: SpMreC (BACTH fusion) (S. pneumoniae D39) (UniProt Q8DMY2)
# T2 sequence: T1 sequence
# B1: SpDivIVA (native, in S. pneumoniae) (protein, UniProt Q8CWP9 1-262)
# chain: MPITSLEIKDKTFGTRFRGFDPEEVDEFLDIVVRDYEDLVRANHDKNLRIKSLEERLSYFDEIKDSLSQSVLIAQDTAERVKQAAHERSNNIIHQAEQDAQRLLEEAKYKANEILRQATDNAKKVAVETEELKNKSRVFHQRLKSTIESQLAIVESSDWEDILRPTATYLQTSDEAFKEVVSEVLGEPIPAPIEEEPIDMTRQFSQAEMEELQARIEVADKELSEFEAQIKQEVETPTPVVSPQVEEEPLLIQLAQCMKNQK
# B2: SpMreC (BACTH fusion) (protein, UniProt Q8DMY2 1-272)
# chain: T1 sequence
# B3: BsYrrS (BACTH fusion) (protein, UniProt O32031 1-233)
# chain: MSNNQSRYENRDKRRKANLVLNILIAIVSILIVVVAANLFINSPSSKDVSKDSETAQKQESPASGKTEKKSDEDIKDSKKDTSDSEKDSEKSSDSDSKKDDSSSKKDDSDSDSSSDSAGDGLKDAKVTEGGSSSDVEKTYENPDWKAVGTEQTGEHAATYDSSSQDWAEMLKAISYATGVSTDNMTVLWLGNNGSPQDAKGKILDKATGNKYQVTITWVDEKGWKPTKVEKLK
# B4: SpGpsB (BACTH fusion) (protein, UniProt Q8DR57 1-109)
# chain: MASIIFSAKDIFEQEFGREVRGYNKVEVDEFLDDVIKDYETYAALVKSLRQEIADLKEELTRKPKPSPVQAEPLEAAITSSMTNFDILKRLNRLEKEVFGKQILDNSDF
# Key:
# [1] = target: T1, SpMreC-L-F3 (S. pneumoniae D39); assay: co-IP; S. pneumoniae cells cross-linked with 0.1% paraformaldehyde, lysates on anti-FLAG magnetic beads, elution with 3X FLAG peptide, blots with anti-PBP2x or anti-GpsB serum
# [2] = target: LmSepF (L. monocytogenes) (UniProt B8DBQ3); assay: two-hybrid; BACTH (L. monocytogenes proteins) in E. coli BTH101; LB agar with X-Gal and IPTG, photographs after 24 and 48 h at 30 °C
# [3] = target: T2, SpMreC (BACTH fusion) (S. pneumoniae D39); assay: two-hybrid; BACTH, S. pneumoniae proteins fused to T18 and T25 in E. coli BTH101; LB agar with X-Gal, photographed after 36 or 40 h at 30 °C
# [4] = target: SpPBP2x-F3 (S. pneumoniae D39); assay: co-IP; S. pneumoniae cells cross-linked with 0.1% paraformaldehyde, lysates on anti-FLAG magnetic beads, elution with 3X FLAG peptide, blots with anti-PBP2x or anti-GpsB serum
# [5] = target: SpStkP-F2 (S. pneumoniae D39); assay: as above
# [6] = target: SpGpsB (BACTH fusion) (S. pneumoniae D39); assay: two-hybrid; BACTH, S. pneumoniae proteins fused to T18 and T25 in E. coli BTH101; LB agar with X-Gal, photographed after 36 or 40 h at 30 °C
# [7] = target: BsRodZ (BACTH fusion) (B. subtilis); assay: two-hybrid; BACTH (B. subtilis proteins); co-transformants grown on nutrient agar plates
# [8] = target: SpEzrA (BACTH fusion) (S. pneumoniae); assay: two-hybrid; BACTH (S. pneumoniae proteins) in E. coli BTH101; LB agar with X-Gal, 30 °C, photographed after 24 and 40 h
# [9] = target: SpPBP2b (BACTH fusion) (S. pneumoniae D39); assay: as above
# [10] = target: SpStkP (BACTH fusion) (S. pneumoniae); assay: as above
molecule,measurement,setting,value
"SpPBP2x (native, in S. pneumoniae)",binding,[1],binds
LmGpsB (BACTH fusion) (from UniProt Q8Y614 1-113),binding,[2],binds
SpPBP2a (BACTH fusion) (from UniProt A0A0H2ZMF9 1-731),binding,[3],binds
B1,binding,[4],no binding
same,binding,[5],binds
B2,binding,[6],binds
B3,binding,[7],binds
B4,binding,[8],binds
same,binding,[9],no binding
same,binding,[10],binds

# These are yes or no findings as the source states them, for the method shown. For some of these results: A result given as binding can be weak or reduced; the word gives no strength. For some of these results: Tags and fused reporters may be left off the sequences shown. For some of these results: Binding seen in cells or lysates may run through a third protein.
